Measured values as given in patent US5348941A, “Stabilizers for fibroblast growth factors” (Merck & Co., Inc., priority 1992, dated 1994).
At least one structure is not confirmed: it was looked up by name or label, or the drawing left a doubt.

Test system: plasma
Experiment: Anticoagulant activity: clotting time (PT / aPTT assay) relative to heparin
Type: biochemical
Conditions: equal weight of heparin, no aFGF present
Method: Clotting times are monitored by either a one-stage plasma prothrombin time assay (PT assay) or an activated partial thromboplastin time assay (aPTT) using an automated optical detection system (coag-a-Mate®-XC) by General Diagnostics. Clotting times are measured in the presence of varying amounts of heparin (0-50 μg heparin/ml plasma) to generate a standard curve and dotting times of other compounds (at equal wt. amounts) are obtained relative to these standardized values.
^(c) Anticoagulant activity is expressed as a fraction of activity
observed with an equal weight of heparin (+ less than 1/10; ++ 1/10 to
1/2; +++ heparin). No aFGF is present during these measurements.
The anticoagulant properties of heparin are well established, so it was of interest to determine the relative anticoagulant properties of the ligands of this study. The anticoagulant effect of these molecules was measured using a dotting time assay (see methods). Clotting times were monitored by either a one-stage plasma prothrombin time assay (PT assay) or an activated partial thromboplastin time assay (aPTT) using an automated optical detection system (coag-a-Mate*-XC) by General Diagnostics. […]

`O=P(O)(O)OP(=O)(O)OP(=O)(O)OP(=O)(O)O` [Tetrapolyphosphate] was tested, and the “Anticoagulant Activity of Ligand (% Heparin by Wt)” value was “+ (less than 1/10)”.
